From PMC9666630
These are yes or no findings as the source states them, for the method shown. Binding seen in cells or lysates may run through a third protein. A yes stands for co-enrichment or nearness to the bait. Other partners may have been found. A no says only that the protein was not detected with the bait. Where a sequence is shown, tags or fusion partners need not be part of it. One block for each molecule: values may come before it.

Sequences of proteins named here, by UniProt entry; tags and fusion partners are left off.
UniProt O22467: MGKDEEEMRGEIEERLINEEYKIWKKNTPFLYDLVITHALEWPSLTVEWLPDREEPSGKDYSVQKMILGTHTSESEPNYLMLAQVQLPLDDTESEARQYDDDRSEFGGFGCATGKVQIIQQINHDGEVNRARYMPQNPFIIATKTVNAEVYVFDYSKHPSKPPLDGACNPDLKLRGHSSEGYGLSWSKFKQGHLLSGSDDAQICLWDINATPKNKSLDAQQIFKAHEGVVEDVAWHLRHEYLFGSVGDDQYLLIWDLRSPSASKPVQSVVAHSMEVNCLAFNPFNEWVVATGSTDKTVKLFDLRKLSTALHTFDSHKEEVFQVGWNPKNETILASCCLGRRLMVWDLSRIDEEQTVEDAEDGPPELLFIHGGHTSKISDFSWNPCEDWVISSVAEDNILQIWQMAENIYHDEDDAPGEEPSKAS
UniProt F4JV59: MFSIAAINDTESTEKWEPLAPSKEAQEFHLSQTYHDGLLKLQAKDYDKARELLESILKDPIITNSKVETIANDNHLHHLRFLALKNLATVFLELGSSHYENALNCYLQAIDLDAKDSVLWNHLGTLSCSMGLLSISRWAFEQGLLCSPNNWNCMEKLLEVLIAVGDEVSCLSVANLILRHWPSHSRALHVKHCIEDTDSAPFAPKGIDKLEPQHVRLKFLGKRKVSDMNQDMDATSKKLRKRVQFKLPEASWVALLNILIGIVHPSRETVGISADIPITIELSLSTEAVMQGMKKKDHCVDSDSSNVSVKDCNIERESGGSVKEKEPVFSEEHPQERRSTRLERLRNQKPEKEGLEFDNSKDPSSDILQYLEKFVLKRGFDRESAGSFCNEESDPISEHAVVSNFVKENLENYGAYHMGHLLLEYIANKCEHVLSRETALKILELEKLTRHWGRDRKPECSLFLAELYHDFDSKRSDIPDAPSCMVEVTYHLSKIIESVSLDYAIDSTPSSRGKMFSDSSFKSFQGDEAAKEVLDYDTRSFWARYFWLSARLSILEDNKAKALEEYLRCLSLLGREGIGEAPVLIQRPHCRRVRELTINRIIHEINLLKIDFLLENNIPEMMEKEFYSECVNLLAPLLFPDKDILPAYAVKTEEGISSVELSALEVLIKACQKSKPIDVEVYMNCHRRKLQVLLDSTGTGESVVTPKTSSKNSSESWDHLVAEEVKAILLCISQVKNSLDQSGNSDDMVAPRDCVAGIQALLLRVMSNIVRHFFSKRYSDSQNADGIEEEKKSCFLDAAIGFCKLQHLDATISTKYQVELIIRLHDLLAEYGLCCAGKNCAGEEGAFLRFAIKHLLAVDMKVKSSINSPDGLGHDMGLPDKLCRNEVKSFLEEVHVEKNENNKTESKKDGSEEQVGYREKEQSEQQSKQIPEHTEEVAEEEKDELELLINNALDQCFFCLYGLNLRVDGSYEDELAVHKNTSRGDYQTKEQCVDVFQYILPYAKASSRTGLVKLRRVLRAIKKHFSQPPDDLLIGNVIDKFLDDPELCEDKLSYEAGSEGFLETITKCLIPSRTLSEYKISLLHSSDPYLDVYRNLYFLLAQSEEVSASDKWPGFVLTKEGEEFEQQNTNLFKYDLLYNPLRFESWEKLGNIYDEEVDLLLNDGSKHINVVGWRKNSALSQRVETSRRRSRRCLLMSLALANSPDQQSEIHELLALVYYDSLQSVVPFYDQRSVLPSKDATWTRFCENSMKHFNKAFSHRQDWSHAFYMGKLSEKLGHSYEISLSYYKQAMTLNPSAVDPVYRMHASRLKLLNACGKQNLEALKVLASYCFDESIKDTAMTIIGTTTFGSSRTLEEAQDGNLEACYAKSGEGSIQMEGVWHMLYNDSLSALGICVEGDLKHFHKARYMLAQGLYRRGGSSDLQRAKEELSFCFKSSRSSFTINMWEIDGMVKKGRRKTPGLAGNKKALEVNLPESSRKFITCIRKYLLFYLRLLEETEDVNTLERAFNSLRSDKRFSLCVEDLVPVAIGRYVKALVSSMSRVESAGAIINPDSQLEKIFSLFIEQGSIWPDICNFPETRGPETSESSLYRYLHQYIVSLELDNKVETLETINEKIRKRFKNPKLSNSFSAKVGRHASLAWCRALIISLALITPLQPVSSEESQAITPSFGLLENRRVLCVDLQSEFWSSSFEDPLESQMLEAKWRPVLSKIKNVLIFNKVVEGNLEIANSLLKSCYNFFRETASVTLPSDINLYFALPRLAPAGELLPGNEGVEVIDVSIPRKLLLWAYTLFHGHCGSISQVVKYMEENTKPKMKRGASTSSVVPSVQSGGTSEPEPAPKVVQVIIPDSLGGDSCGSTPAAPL

Assays:
[1] = target: T1, ASF1B-9xMyc-BLRP (pASF1B::ASF1B-9xMyc-BLRP complementing line) (Arabidopsis thaliana) (UniProt Q9LS09); assay: affinity purification with mass spectrometry; IP-MS from about 20 g young inflorescence tissue of asf1a + ASF1A-3xFlag and asf1b + ASF1B-9Myc lines, Col-0 as negative control; anti-FLAG M2 magnetic beads or streptavidin beads; interactors: fold change >2 and FDR < 0.01
T1 sequence: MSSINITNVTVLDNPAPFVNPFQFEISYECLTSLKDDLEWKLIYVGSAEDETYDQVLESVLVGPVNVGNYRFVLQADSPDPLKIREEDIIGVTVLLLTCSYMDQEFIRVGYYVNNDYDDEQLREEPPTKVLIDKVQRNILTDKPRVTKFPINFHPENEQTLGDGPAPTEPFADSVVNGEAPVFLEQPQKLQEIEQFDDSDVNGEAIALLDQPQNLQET

[2] = target: T2, ASF1A-3xFlag-BLRP (pASF1A::ASF1A-3xFlag-BLRP complementing line) (Arabidopsis thaliana) (UniProt Q9C9M6); assay: as above
T2 sequence: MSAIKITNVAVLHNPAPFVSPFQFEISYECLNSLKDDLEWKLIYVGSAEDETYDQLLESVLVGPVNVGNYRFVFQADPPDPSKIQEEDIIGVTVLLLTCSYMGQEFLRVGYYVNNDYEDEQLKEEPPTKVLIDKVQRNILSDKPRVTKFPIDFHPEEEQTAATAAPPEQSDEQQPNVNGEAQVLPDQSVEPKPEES

binding [1]: no binding
Molecule: MULTICOPY SUPPRESSOR OF IRA1 (AtMSI1), endogenous (from UniProt O22467 1-424)

binding [2]: binds | binding [1]: binds
Molecule: CABIN1, endogenous (from UniProt F4JV59 1-1863)

binding [1]: binds
Molecule: AtNASP (Nuclear Autoantigenic Sperm Protein homolog), endogenous

binding [2]: no binding
B1: ASF1B, endogenous (protein, UniProt Q9LS09 1-218)
chain: T1 sequence

binding [1]: no binding
B2: ASF1A, endogenous (protein, UniProt Q9C9M6 1-196)
chain: T2 sequence

binding [2]: binds | binding [1]: binds
B3: UBN2, endogenous (protein, UniProt F4I700 1-717)
chain: MEDEPKLPTDDGPTFNESCKISSEILTAGDRKLLKVELLKEETTLVSWKKLMDEASKENGGLFVSAPERLLNANPNLEFRLAPGAQTENEMVNQPHPNRLNSVIAKIERLYMGKDGSDGEELDGAPDDDDYDTEDSFIDDAELDEYFEVDNSPIKHDGFFVNRGKLERIEPSATSNQQQPKKRRRKESAKPCGDVVDVSRKRAKMAKTAGGKDQSASPGPSSKKISNDSKTVQDSFSPLKAQNGNDSLVLENVKHTDKANHQPMNATSPKSKAAGSSGPLHPKCSSKSVHEQSNSPPGKSRPNVSAKSAVVRQQVNNGMPDLDIATESKTSIQISKKSGSNGRPKYSTLEKAIRNLEKLVAESRPPAATENQDADISSQAVKRGLPGDVKLHLAKVARIAYASQGEISGELINRLMGIVGHLIQIRSLKRNLKIMIDSIVTANREKDTRFQRIKSEITEMLKTQVPLVESQETNQEAGTSDDFQDVGSLGKSPVKKFVMDVALEEKLCDLYDVFVEGMDEHSGSQIRKLYSDLAQLWPNSLVDNHEIRRAICREKERRRALEGNIGKEMDQTKITKKKQTQLVPKSEGITYPDKTSGVEVKASVVLTATTTSLVDCQPAADSSFERSKQQHEKLKRTSSLSNPAAEGKKVRRKTEPALEETHLPAEKPLVLALKRQTHLKSKTHKQVQVHPQSKAHKQAQVHPKAKTQTPPDLNLPS

binding [1]: no binding
B4: FASCIATA1 (FAS1), endogenous (protein, UniProt Q9SXY0 1-815)
chain: MDEVSTVNENENRKTMIEPKKLNKRKREPTAIENLTSEEKESQISSLNLEMKGLFDYFREVMDKSKRTDLFSGFSECSSLNSMVALLMEEMSLPLSKLVDEIYLKLKEKTESVTMVAVKSAVVSVGQRVSYGVLNVDADVLEDDSESCLWCWETRDLKIMPSSVRGVLKLRRTCRKKIHERITAVSAMLAALQREETEKLWRSDLSKAAEKLGKILSEVDIRSFMDNMMQKNSSEMAEKDSKREEKLLLKQLEKNRCEAEKEKKRMERQVLKEKLQQEKEQKLLQKAIVDENNKEKEETESRKRIKKQQDESEKEQKRREKEQAELKKQLQVQKQASIMERFLKKSKDSSLTQPKLPSSEVTAQELSCTKHENEIGKVVQAIDNAFSTTCEATVDDIRREHFASWRQLGHLLSSSKKHWGMRRQPKSELFPKLKLSTNSGVTSDGEPNMEKQGDGCEENNFDGRQCKPSSSNRKKSRRVKQLLQFDKSCRPGFYGIWPSQSQVVKPRRPLQKDPELDYEVDSDEEWEEEEAGESLSDCEKDEDESLEEGCSKADDEDDSEDDFMVPDGYLSEDEGVQVDRMDIDPSEQDANTTSSKQDQESPEFCALLQQQKHLQNLTDHALKKTQPLIICNLTHEKVSLLAAKDLEGTQKVEQICLRALMVRQFPWSSLIEISINDIQDEDQEASKFSCSQSTPPSNSKAKIIPDSDLLTVVSTIQSCSQGINRVVETLQQKFPDVPKTKLRQKVREISDFEDSRWQVKKEVLTKLGLSPSPDKGGKRLPKTISTFFSKRCLPPSTKPQPAVEDAAERLENENA

binding [2]: binds | binding [1]: binds
B5: UBINUCLEIN1 (UBN1), endogenous (protein, UniProt Q8RX78 1-684)
chain: MSEVNEMSGGSIGGELLRASPKVLTAGDRKLLKVELRPGDTTYVSWKKLMRDAGKVNGLSASVPDPPPNANPNLEFRIAPGHPVEIETNEQPHSNRFNAVIEKIERLYKGNDSSDGEELDGAPDDDEYDTEDSFIDDAELDEYFEVDNSTVKHDGFYVNRGKLERMEPSTTSNQQPKKRRRKDSAKPCRDAVDVSDKHTKLSITARKKDQSTAPGSWKTQESPLPSGAQDANTSVPLDDVKHSDRANHQSRNDTSHKSRETGSSSALHQKYSNKSLHQQSTSLLGKSPPNVFAEVTVVRQKENNGMHQLANVTGSRQSSQASKKDGSNVKSKTSILEKAIRELEKVVVESRPPAITENQEADTSSQAVKRRLPRDVKLKLAKVARIAQASQGKHSTELINRLMSIVGHLIQLRSLKRNLKIMIDMGDSATREKDTRFKQINNEVLDMIKAKVSLMESQAIKPEGATSDDFQDSVEKPSLKKFVMDAALEDKLCDLYDIFIDGLDEDQGPQTKKLYVNLAELWPNRLMDYRGIKHAIFRAKERRKALYGNLAKEMDQTKMKKSMKQLVPRTDCTAQPNTELVVQRQHSGEKKLIVDPNATSTSVVTSQTMVDRSNQQQPEKLKGISSSCNPTEETRVVKRKNEAVMAEKQVVLALKKPEHPQTRVIPAPQNLNIPRTTPDLNLPS

binding [2]: binds | binding [1]: binds
B6: TOUSLED, endogenous (enzyme, UniProt Q39238 1-688)
chain: MSDDMVLHFSSNSSNQSDHSLPDKIAKLEARLTGKTPSSAKPPQQQQQQQQQVSLWSSASAAVKVVTSTPPGLSETSISDSDDENTGDFLIRANTKKRQKVQESNNFSVVDHVEPQEAAYDGRKNDAESKTGLDVSKKKQGRGRASSTGRGRGSKTNNDVTKSQFVVAPVSAASQLDASDQKDFRPDGQLRNGECSLQDEDLKSLRAKIAMLEEELRKSRQDSSEYHHLVRNLENEVKDLKDQEQQGKQKTTKVISDLLISVSKTERQEARTKVRNESLRLGSVGVLRTGTIIAETWEDGQMLKDLNAQLRQLLETKEAIERQRKLLKKRQNGDKNDGTDTESGAQEEDIIPDEVYKSRLTSIKREEEAVLRERERYTLEKGLLMREMKRIRDEDGSRFNHFPVLNSRYALLNLLGKGGFSEVYKAYDLVDHRYVACKLHGLNAQWSEEKKQSYIRHANRECEIHKSLVHHHIVRLWDKFHIDMHTFCTVLEYCSGKDLDAVLKATSNLPEKEARIIIVQIVQGLVYLNKKSQKIIHYDLKPGNVLFDEFGVAKVTDFGLSKIVEDNVGSQGMELTSQGAGTYWYLPPECFELNKTPMISSKVDVWSVGVLFYQMLFGKRPFGHDQSQERILREDTIIKAKKVEFPVTRPAISNEAKDLIRRCLTYNQEDRPDVLTMAQDPYLAYSKK
